Experimental data reported in BindingDB's records for doi:10.7270/Q28S4TSS (D3R/Abbott, 2020).

Amino acid sequences for entries named in this document (tags omitted). A change or cut given only in a name is not applied to a line headed by its entry.
UniProt O60674: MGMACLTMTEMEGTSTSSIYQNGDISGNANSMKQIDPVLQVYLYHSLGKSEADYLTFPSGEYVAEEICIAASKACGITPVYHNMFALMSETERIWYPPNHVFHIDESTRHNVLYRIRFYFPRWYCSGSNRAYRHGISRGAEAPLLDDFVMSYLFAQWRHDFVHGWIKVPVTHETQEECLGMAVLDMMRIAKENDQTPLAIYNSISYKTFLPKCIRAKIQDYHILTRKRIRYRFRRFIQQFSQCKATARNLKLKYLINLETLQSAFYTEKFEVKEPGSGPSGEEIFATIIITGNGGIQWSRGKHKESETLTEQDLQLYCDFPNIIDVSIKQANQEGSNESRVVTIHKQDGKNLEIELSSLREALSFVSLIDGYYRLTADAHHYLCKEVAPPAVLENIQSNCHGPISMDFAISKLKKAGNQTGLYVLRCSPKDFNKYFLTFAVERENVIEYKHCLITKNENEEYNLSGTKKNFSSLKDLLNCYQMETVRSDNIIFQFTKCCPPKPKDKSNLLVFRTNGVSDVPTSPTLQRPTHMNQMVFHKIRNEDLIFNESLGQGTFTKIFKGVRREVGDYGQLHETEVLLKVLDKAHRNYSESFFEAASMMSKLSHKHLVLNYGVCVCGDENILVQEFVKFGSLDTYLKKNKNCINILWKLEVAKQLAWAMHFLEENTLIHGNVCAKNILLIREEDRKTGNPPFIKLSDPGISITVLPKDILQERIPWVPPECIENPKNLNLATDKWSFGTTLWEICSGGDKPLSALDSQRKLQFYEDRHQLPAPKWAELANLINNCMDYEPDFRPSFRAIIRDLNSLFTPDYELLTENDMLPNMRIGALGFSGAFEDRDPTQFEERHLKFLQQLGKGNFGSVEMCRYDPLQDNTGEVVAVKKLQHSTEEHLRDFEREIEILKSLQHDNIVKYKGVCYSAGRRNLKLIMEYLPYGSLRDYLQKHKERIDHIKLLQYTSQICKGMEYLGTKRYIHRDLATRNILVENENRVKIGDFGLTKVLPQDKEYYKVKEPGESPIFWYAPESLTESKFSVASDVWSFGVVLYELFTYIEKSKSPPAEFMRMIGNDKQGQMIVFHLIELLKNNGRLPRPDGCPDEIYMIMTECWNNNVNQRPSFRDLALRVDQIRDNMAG

Target: Tyrosine-protein kinase JAK2 (Homo sapiens, UniProt O60674)

Row | SMILES | Kd [µM]
1 | Cc1cc(C)cc(Oc2nccc(-c3c(-c4ccc(F)cc4)ncn3C3CCNCC3)n2)c1 [2-(3,5-Dimethyl-phenoxy)-4-[5-(4-fluoro-phenyl)-3-piperidin-4-yl-3H-imidazol-4-yl]-pyrimidine] | 10
2 | CS(=O)(=O)c1ccccc1-c1nc(-c2ccc(F)cc2)c(-c2ccncc2)[nH]1 [D3RKN_30] | 10
3 | O=C(O)c1ccc(-c2nc(-c3ccc(F)cc3)c(-c3ccncc3)[nH]2)cc1 [D3RKN_53] | 10
